# Earlier results, collected in US20250205199A1, “5-METHOXY-N,N-[…][…] THE TREATMENT OF SOCIAL/EMOTIONAL […] DETACHMENT” (GH RESEARCH IRELAND LIMITED, priority 2022, published 2025).
# For at least one compound, name, drawing or mass did not settle the structure.
# Conditions: oral; cited from earlier work
compound,measurement,value
CN(C)CCc1c[nH]c2cccc(OP(=O)(O)O)c12 [psilocybin],Duration of acute psychedelic effects,several hours
